No constants are given. Whether binding was seen depends on the method and setting. In cells and extracts the contact can be indirect. Some entries that bind do so weakly or less than the wild type. Where a sequence is shown, tags or fusion partners need not be part of it.

Protein sequences, listed by entry. Tags and fused reporters are not part of them. Lines headed by an entry give the natural chain unless they say otherwise; changes in a name come on top.
UniProt O16844: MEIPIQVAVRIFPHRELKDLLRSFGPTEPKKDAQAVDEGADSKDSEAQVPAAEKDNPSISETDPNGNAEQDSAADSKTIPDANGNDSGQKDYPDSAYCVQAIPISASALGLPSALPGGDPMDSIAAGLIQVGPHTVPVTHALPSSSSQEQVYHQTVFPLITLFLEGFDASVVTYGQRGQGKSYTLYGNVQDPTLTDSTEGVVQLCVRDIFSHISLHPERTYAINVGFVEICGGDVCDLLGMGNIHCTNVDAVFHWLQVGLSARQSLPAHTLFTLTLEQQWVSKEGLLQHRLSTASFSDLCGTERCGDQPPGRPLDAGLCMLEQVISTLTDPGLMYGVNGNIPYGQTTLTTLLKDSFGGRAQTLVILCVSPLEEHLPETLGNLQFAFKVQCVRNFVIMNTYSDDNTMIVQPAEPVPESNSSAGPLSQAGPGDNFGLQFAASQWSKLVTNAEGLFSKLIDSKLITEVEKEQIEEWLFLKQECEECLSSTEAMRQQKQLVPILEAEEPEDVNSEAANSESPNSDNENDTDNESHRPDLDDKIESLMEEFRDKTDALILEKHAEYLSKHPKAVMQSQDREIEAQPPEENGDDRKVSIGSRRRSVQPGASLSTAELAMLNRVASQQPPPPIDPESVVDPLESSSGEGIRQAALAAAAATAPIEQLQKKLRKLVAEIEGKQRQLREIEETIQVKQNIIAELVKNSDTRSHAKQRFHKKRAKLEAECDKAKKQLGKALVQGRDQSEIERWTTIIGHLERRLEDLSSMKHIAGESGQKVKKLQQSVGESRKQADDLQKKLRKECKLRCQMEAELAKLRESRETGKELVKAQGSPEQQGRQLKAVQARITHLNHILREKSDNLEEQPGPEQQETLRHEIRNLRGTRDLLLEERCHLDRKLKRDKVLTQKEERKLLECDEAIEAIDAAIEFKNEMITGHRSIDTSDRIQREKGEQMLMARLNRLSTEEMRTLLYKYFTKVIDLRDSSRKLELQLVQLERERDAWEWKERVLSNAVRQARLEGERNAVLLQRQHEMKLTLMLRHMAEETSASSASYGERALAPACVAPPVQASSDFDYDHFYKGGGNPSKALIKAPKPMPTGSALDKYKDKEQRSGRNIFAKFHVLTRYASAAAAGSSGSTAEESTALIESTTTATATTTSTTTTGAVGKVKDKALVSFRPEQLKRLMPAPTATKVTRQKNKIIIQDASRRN

The values that follow come from publication PMC4749301.

Experiment [1] concerns the target T1, Myc-Smo^WT (Myc-tagged wild-type Drosophila Smoothened) (Drosophila) (UniProt P91682).
T1 sequence: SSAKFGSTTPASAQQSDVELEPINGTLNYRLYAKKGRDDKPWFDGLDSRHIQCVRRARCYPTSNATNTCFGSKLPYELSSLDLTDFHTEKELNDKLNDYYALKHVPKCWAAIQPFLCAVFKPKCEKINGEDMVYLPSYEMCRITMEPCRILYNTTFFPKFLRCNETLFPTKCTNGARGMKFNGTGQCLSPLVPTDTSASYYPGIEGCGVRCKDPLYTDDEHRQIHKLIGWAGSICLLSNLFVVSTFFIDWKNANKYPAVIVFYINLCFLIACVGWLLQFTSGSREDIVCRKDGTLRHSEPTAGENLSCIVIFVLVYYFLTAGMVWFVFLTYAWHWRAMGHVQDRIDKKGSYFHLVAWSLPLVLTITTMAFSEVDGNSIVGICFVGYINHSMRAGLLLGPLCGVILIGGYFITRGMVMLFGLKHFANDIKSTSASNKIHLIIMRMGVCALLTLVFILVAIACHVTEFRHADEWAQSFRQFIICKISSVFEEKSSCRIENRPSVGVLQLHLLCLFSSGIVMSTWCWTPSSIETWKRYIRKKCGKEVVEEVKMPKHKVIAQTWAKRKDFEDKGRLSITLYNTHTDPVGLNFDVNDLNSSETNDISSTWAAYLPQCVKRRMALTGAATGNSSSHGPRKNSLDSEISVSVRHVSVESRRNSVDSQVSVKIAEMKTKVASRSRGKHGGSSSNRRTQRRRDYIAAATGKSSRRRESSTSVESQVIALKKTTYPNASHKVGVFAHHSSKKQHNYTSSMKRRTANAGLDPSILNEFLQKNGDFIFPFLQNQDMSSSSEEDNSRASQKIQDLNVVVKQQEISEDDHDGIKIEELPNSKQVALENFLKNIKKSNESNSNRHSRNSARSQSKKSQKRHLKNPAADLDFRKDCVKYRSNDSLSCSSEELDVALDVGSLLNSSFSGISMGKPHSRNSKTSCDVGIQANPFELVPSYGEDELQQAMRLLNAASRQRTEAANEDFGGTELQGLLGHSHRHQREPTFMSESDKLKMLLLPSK
Briefly: co-IP; S2 cells transfected with the indicated constructs, treated with Hh-conditioned medium and/or PI(4)P; immunoprecipitation with anti-Myc to detect Smo-bound Cos2 and Fu.

Experiment [2] deals with Smo^WT with CFP or YFP tagged to its C-terminus (Drosophila) (UniProt P91682). Briefly: FRET or BRET; FRET efficiency between Smo tagged with CFP or YFP at the C-terminus in transfected S2 cells; Hh-conditioned or control medium, carrier 3 or carrier 3 plus PI(4)P. Background: BRET reads energy transfer from a luciferase to a nearby fluorophore.

In the case of “Costal2-Fused (Cos2-Fu) protein complex (from UniProt O16844 1-1201; P23647 1-805)”, the binding result in experiment [1] is given as “binds”.

B1: Smo^WT with CFP or YFP tagged to its C-terminus (receptor, UniProt P91682 32-1036)
chain: T1 sequence
For the molecule B1, the binding result in experiment [2] was “binds”.
